# Primary screen of a compound library

Mtb growth Cornell: 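Whole-cell assay for inhibitors of Mycobacterium tuberculosis growth, labelled Cornell in the record; the read-out is not stated. The concentration is filed as 10 mM, unlikely as a test dose, so the dose is not known. The record gives no direction; compounds strong in two other growth screens of this library score well above the rest, so higher reads as stronger inhibition. About 53,000 compounds were tested under these conditions; 1.7% (about 900) showed 50% or more at least once.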
Mtb heat-shock: 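Assay on Mycobacterium tuberculosis, filed only as a heat shock assay from Cornell; the read-out is not stated. The concentration is filed as 10 mM, unlikely as a test dose, so the dose is not known. The record gives no direction; compounds that gave an IC50 in retests scored well above the rest, so higher reads as stronger inhibition. Of about 69,000 compounds tested this way, about 930 (1.4%) reached 50% or more in at least one test.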

The filed quantity is “Percent Effect” (%).
How 0% and 100% were set is not recorded. Most values in the screen are low, and negative values occur.
Compounds were drawn at random from those tested, without regard to their results.

- CNC(=O)c1ncn2c1CN(CCC(C)C)S(=O)(=O)c1ccccc1-2 | Mtb growth Cornell: 23.6%; Mtb heat-shock: -4.726%
- CCC(Nc1ccc(CCN2CCOCC2)cc1)C(N)=O (stereo not shown) | Mtb growth Cornell: -19.51%; Mtb heat-shock: -25.91%
- CC(C)c1nn(C)c(N2CCOCC2)c1CNCc1cscn1 | Mtb growth Cornell: 9.244%; Mtb heat-shock: -0.8822%
- CCOc1cccnc1C(=O)N1CC=C(c2ccc(O)cc2)CC1 | Mtb growth Cornell: 22.11%; Mtb heat-shock: -4.146%
- CCc1ccc(C(=O)NCCNc2ncccn2)cc1 | Mtb growth Cornell: -25.5%; Mtb heat-shock: -31.28%
- CN(C)C(=O)CCCS(=O)(=O)Cc1cc(Cl)c2c(c1)OCCO2 | Mtb heat-shock: 13.99%
- O=C(Cn1nc(-c2cccs2)ccc1=O)N1CCCCCC1 | Mtb heat-shock: 0.3127%
- O=C(c1ccc(Cn2cccc2)cc1)N1CCN(CCO)CC1 | Mtb growth Cornell: -37.57%; Mtb heat-shock: -12.89%
- CCN(C(=O)CS(=O)(=O)c1cc(OC)c(OC)cc1C)C1CC1 | Mtb growth Cornell: -6.612%; Mtb heat-shock: -1.032%
- CC(O)CN1CCC(CN(C)Cc2ccc(C#N)cc2F)CC1 (stereo not shown) | Mtb growth Cornell: 30.59%; Mtb heat-shock: -19.04%
- CN(CCSc1ccccc1)C(=O)c1cn2c(n1)CNCC2 | Mtb growth Cornell: 43.09%; Mtb heat-shock: -2.8%
- CCc1ncc2c(n1)CN(Cc1nc(-c3cccs3)no1)CC2 | Mtb growth Cornell: 23.26%; Mtb heat-shock: 11.16%
- O=C(NCc1cnc2n1CCN(Cc1cccs1)C2)c1ccno1.O=C(O)C(F)(F)F | Mtb growth Cornell: -27.9%; Mtb heat-shock: -1.92%
- CCN(CC)C(=O)c1c(Cl)cnn1CC | Mtb growth Cornell: -21.24%; Mtb heat-shock: -4.041%
- O=C(O)C(F)(F)F.[H][C@@]12COC[C@@H](CC(=O)N3CCCCO3)[C@]1([H])CN(C1CCCC1)C2 | Mtb growth Cornell: -13.88%; Mtb heat-shock: -9.236%
- CN(C)CCNC(=O)c1cc2n(n1)CCN(C(=O)c1ccc[nH]1)C2 | Mtb growth Cornell: -9.47%; Mtb heat-shock: 7.505%
- COCCOC1CCN(C(=O)NCc2coc3ccccc23)CC1 | Mtb growth Cornell: 13.76%; Mtb heat-shock: 6.719%
- CCN1C(=O)CCC12CCCN(Cc1nccs1)CC2.O=C(O)C(F)(F)F (stereo not shown) | Mtb heat-shock: -119%
- Cc1cc(C(=O)N2CCn3cc(CN4CCN(C)CC4)nc3C2)no1 | Mtb growth Cornell: 10.78%; Mtb heat-shock: 5.796%
- CCN1CCN(C2CCN(Cc3cc(C)on3)CC2)C1=O | Mtb growth Cornell: -27.31%; Mtb heat-shock: -5.378%
- Cc1ccc(C(=O)N2CCCn3nc(CCC(=O)O)cc3C2)cc1Cl | Mtb growth Cornell: 16.7%; Mtb heat-shock: -15.51%
- CCc1ccc(C(=O)N2CCCC(c3noc(CC)n3)C2)o1 (stereo not shown) | Mtb heat-shock: -8.999%
- O=C(c1cc(COc2ccc3c(c2)OCO3)[nH]n1)N1CCCC1 | Mtb growth Cornell: 105.4%; Mtb heat-shock: 27.84%

Repeated from the top, 3 entries:

SMILES,Mtb growth Cornell,Mtb heat-shock
CNC(=O)c1ncn2c1CN(CCC(C)C)S(=O)(=O)c1ccccc1-2,23.6,-4.726
CCC(Nc1ccc(CCN2CCOCC2)cc1)C(N)=O (stereo not shown),-19.51,-25.91
CC(C)c1nn(C)c(N2CCOCC2)c1CNCc1cscn1,9.244,-0.8822

From ChEMBL document CHEMBL3988442, “University of Dundee, Small-Polar-MMV Screening Library” (2021).